From PubChem BioAssay AID504444 (National Center for Advancing Translational Sciences (NCATS), 2011)
Among all 360,000 compounds or so, about 7,500 (2.1%) were called active. Inconclusive results, whose numbers are uncertain, are shown with a selection of clear calls. Calls follow the shape of the dose curve; as a rule, active = well fitted inhibition curve with a large enough effect; inconclusive = small, poorly fitted or top-dose-only effect, or effect the other way; inactive = flat fitted curve, though single readings scatter. Where the call is inconclusive, the potency comes from a doubtful curve fit.
% is scaled to controls: 0 for no effect and ±100 for the full control effect; potency is read from the fitted curve at half-maximal effect.

Test: Nrf2 qHTS screen for inhibitors; also: nearly all actives have a fitted effect of over 60% in size
Settings: A549 ARE-Fluc reporter, luciferase luminescence, 18-24 h; activity change, negative = inhibition: at 46 µM (top of the series)
Procedure, shortened: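 Reporter: ARE-Fluc in A549. Exposure: 18-24 h, 37 °C, 5% CO2, 5% FBS OPTI-MEM. Readouts: fluorescent cytotoxicity (CellTiter-Fluor), then luminescent Nrf2 signal after BugLite.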
In the case of `CN(C)c1ncnc2c1ncn2C1CCCCO1` (configuration not stated), the Potency is reported as inconclusive: 20.6 µM [activator, single point]. In the case of `Cc1occc1-c1nnc(SCC(=O)NCc2cccs2)n1-c1ccc(F)cc1`, the Potency is reported as inconclusive: 29.1 µM [falling, single point]. In the case of `CC(C)N1CCc2c(sc(NC(=S)NC(=O)c3ccccc3)c2C#N)C1`, the Potency is reported as inconclusive: 2.31 µM [activator, full curve, poor fit]. With `O=C(c1ccco1)N1N=C(c2ccc(Br)cc2)CC1c1ccco1` (configuration not stated) the Potency was inconclusive: 18.4 µM [falling, partial curve]. In the case of `O=C(NCc1ccc(Cl)cc1)c1cc2c(nc3sccn32)s1`, the Potency is reported as inconclusive: 13 µM [falling, partial curve, poor fit]. In the case of `CCN(Cc1ccccc1)Cc1c(O)ccc2c(=O)c(-c3ccccc3Cl)coc12`, the “activity change, negative = inhibition” value is reported as inactive: -9.34%. In the case of `Cc1cccc(NC(=O)CSc2nc3sc(C)cc3c(=O)n2C)c1`, the Potency is reported as active: 23.1 µM. With `O=C1[C@H]2C(c3ccccc3)=NN(c3ccccc3)[C@H]2C(=O)N1c1ccccc1` the Potency was inconclusive: 6.51 µM [falling, single point]. For `C[C@H](CO)N1C[C@H](C)[C@@H](CN(C)Cc2ccc(C(=O)O)cc2)Oc2c(NS(=O)(=O)c3ccccc3)cccc2C1=O`, the Potency was inconclusive: 8.2 µM [activator, partial curve]. For `Clc1ccccc1Nc1nc(-c2cccnc2)cs1`, the Potency was inconclusive: 3.66 µM [activator, full curve]. For `CCn1cc(C(=O)NCCCOC(C)C)c(=O)c2cc(S(=O)(=O)N(C)C3CCCCC3)ccc21`, the Potency was inconclusive: 29.1 µM [falling, single point]. With `CCOC(=O)N1CCN(C(=O)CNC(=O)c2nn(-c3ccc(OC)c(Cl)c3)c(=O)c3ccccc23)CC1` the Potency was inconclusive: 32.6 µM [activator, single point]. In the case of `c1nc(N2CCCC2)c2[nH]cnc2n1`, the Potency is reported as inconclusive: 16.4 µM [falling, partial curve, poor fit]. For `CC1CCCCC1NC(=O)CSc1nc2ccccc2[nH]1` (configuration not stated), the Potency was inconclusive: 29.1 µM [falling, single point]. In the case of `O=C(CC1C(=O)NCCN1Cc1ccccc1C(F)(F)F)NC1CCC1` (configuration not stated), the Potency is reported as inconclusive: 29.1 µM [falling, single point]. With `Cc1cc(C)n2nc(C(=O)Nc3ccc4c(c3)OCCO4)nc2n1` the Potency was inconclusive: 18.4 µM [falling, partial curve, poor fit]. With `COc1ccc(N2Nc3n[nH]c(N)c3N2)cc1` the Potency was inconclusive: 11.6 µM [activator, partial curve].
